PubChem BioAssay AID743121 | NCATS, 2013
Aim: 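Genes whose silencing strengthens cell killing by camptothecin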 (primary screen). System: MDA-MB-231 cells, a human breast cancer line. Knock-down reagent: single siRNA against human genes, 20 nM siRNA (0.8 pmol per well). Duration: 120 h (drug added 48 h after transfection, read 72 h later). Treatment: camptothecin 20 nM (about EC30) for 72 h; vehicle 0.1% DMSO in parallel plates. Measured: 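CellTiter-Glo ATP signal, scaled to control siRNA as percent viability; sensitisation given as log2 of untreated divided by camptothecin-treated viability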. Reading the numbers: log2 vehicle/camptothecin viability: higher = stronger sensitisation to camptothecin; viability with camptothecin: higher = more viable cells. Units: viability with camptothecin in % of control. Call rule: 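Active genes have an RSA gene-level p-value below 0.001, computed from the ratios of their separate siRNAs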.
The whole screen tested about 26,000 reagents; below is an unselected part. In the full data, 167 (0.63%) got an active call. 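Calls are per gene from RSA p-values that are not deposited; an individual active-marked siRNA can sensitise only weakly.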 Entries without a mark were called inactive. Reagents against one gene are numbered here. Further read-outs or replicates are left out here.

How did the screen score PPIB #1?
log2 vehicle/camptothecin viability: -0.182; viability with camptothecin: 117

With PPIB #2, how do the results read?
log2 vehicle/camptothecin viability: -0.375; viability with camptothecin: 56

Which result is listed for PPIB #3?
log2 vehicle/camptothecin viability: -0.418; viability with camptothecin: 31.5

What did the screen give for PPIB #4?
log2 vehicle/camptothecin viability: 0.381; viability with camptothecin: 32.5

With ALPL #1, what was measured?
log2 vehicle/camptothecin viability: -0.478; viability with camptothecin: 81.4

What did the screen give for ALPL #2?
log2 vehicle/camptothecin viability: -0.384; viability with camptothecin: 85.7

With ALPL #3, what does the deposit list?
log2 vehicle/camptothecin viability: 0.69; viability with camptothecin: 35.4

Which result is listed for ALPL #4?
log2 vehicle/camptothecin viability: -0.528; viability with camptothecin: 73.9

What is on record for ATP1A1 #1?
log2 vehicle/camptothecin viability: -0.348; viability with camptothecin: 78.1

Which result is listed for ATP1A1 #2?
log2 vehicle/camptothecin viability: -0.111; viability with camptothecin: 109

What is on record for ATP1A1 #3?
log2 vehicle/camptothecin viability: -0.325; viability with camptothecin: 99.7

How did the screen score ATP1A1 #4?
log2 vehicle/camptothecin viability: -0.282; viability with camptothecin: 96.4

Part of the list above, reformatted.
gene | reagent | log2 vehicle/camptothecin viability | viability with camptothecin
ALPL | 2 | -0.384 | 85.7
ALPL | 3 | 0.69 | 35.4
ALPL | 4 | -0.528 | 73.9
ATP1A1 | 1 | -0.348 | 78.1

Additional entries follow:
With ADCK2 #1, what does the deposit list?
log2 vehicle/camptothecin viability: 0.0275; viability with camptothecin: 92.5

How did the screen score ADCK2 #2?
log2 vehicle/camptothecin viability: -0.19; viability with camptothecin: 121

With ADCK2 #3, what was measured?
log2 vehicle/camptothecin viability: -0.106; viability with camptothecin: 55.3

For ADCK2 #4, what was measured?
log2 vehicle/camptothecin viability: -0.671; viability with camptothecin: 84.6

For AK4 #1, what was measured?
log2 vehicle/camptothecin viability: -0.148; viability with camptothecin: 52.4

For AK4 #2, what does the deposit list?
log2 vehicle/camptothecin viability: -0.148; viability with camptothecin: 70.7

What did the screen give for AK4 #3?
log2 vehicle/camptothecin viability: 0.504; viability with camptothecin: 28.4

For AK4 #4, what does the deposit list?
log2 vehicle/camptothecin viability: -0.548; viability with camptothecin: 91.3

With AK1 #1, what was measured?
log2 vehicle/camptothecin viability: -0.0104; viability with camptothecin: 79.1

What is on record for AK1 #2?
log2 vehicle/camptothecin viability: -0.176; viability with camptothecin: 92.4

With AK1 #3, what does the deposit list?
log2 vehicle/camptothecin viability: 0.139; viability with camptothecin: 33.9

How did the screen score AK1 #4?
log2 vehicle/camptothecin viability: -0.405; viability with camptothecin: 52.4

How did the screen score NF1 #1?
log2 vehicle/camptothecin viability: -0.392; viability with camptothecin: 67.4

With NF1 #2, what does the deposit list?
log2 vehicle/camptothecin viability: -0.495; viability with camptothecin: 116

What is on record for NF1 #3?
log2 vehicle/camptothecin viability: 0.4; viability with camptothecin: 42

With NF1 #4, how do the results read?
log2 vehicle/camptothecin viability: -0.0127; viability with camptothecin: 66.4

What did the screen give for F2RL2 #1?
log2 vehicle/camptothecin viability: -0.352; viability with camptothecin: 73.3

What is on record for F2RL2 #2?
log2 vehicle/camptothecin viability: -0.312; viability with camptothecin: 84

What did the screen give for F2RL2 #3?
log2 vehicle/camptothecin viability: -0.416; viability with camptothecin: 85.7

With F2RL2 #4, what does the deposit list?
log2 vehicle/camptothecin viability: -0.528; viability with camptothecin: 58.4

With MAD2L1 #1, what was measured?
log2 vehicle/camptothecin viability: -0.349; viability with camptothecin: 74.9

What did the screen give for MAD2L1 #2?
log2 vehicle/camptothecin viability: -0.402; viability with camptothecin: 78.4

Which result is listed for MAD2L1 #3?
log2 vehicle/camptothecin viability: -0.453; viability with camptothecin: 98.3

How did the screen score MAD2L1 #4?
log2 vehicle/camptothecin viability: -0.696; viability with camptothecin: 80.2
